# From paper PMC11269665
# Amino acid sequences for entries named in this document (tags omitted).
# UniProt Q14532: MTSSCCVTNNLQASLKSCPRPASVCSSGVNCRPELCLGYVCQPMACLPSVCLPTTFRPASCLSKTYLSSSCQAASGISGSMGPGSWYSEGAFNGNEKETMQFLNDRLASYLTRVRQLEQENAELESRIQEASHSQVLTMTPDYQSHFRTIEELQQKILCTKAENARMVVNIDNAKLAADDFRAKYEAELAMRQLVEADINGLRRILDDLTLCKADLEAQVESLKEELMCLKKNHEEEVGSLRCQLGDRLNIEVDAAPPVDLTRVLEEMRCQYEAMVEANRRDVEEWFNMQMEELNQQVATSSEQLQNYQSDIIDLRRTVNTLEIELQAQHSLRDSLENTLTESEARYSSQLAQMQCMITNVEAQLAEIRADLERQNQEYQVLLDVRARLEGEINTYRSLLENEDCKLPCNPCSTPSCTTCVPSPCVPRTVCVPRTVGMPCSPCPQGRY
# UniProt Q9Y6K9: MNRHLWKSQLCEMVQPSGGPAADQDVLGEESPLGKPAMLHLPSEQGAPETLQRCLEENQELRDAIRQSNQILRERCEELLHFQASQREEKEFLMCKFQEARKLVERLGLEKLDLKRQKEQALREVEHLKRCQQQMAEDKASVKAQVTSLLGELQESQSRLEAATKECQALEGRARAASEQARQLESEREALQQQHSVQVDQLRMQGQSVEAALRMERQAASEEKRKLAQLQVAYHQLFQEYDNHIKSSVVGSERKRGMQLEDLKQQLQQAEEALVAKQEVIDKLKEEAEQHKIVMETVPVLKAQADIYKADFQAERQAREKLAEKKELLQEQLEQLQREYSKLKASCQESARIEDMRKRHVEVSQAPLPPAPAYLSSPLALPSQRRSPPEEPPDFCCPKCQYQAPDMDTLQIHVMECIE
# Target: GST-KRT32 (human) (UniProt Q14532)
# Assay: affinity purification with mass spectrometry; E. coli extracts containing GST-KRT32 (GST as control) incubated 12 h with primary keratinocyte lysate and glutathione-Sepharose beads; gel bands analysed by mass spectrometry (n = 1)
substance,measurement,value
NEMO (endogenous) (from UniProt Q9Y6K9 1-419),binding,binds

# Results are given in words; binding and its absence hold for the method and conditions named. In cells and extracts the contact can be indirect. These calls come from enrichment with a bait or labelling near it, and not all partners need be listed.
